These are yes or no findings as the source states them, for the method shown. In cells and extracts the contact can be indirect. Sequences can lack the tags named with a protein.

1 molecule from article PMC4499153 can be followed below.

In this assay the target is T1, FLAG-tagged AFF1, full length (aa 1-1210), P51825.
T1 chain: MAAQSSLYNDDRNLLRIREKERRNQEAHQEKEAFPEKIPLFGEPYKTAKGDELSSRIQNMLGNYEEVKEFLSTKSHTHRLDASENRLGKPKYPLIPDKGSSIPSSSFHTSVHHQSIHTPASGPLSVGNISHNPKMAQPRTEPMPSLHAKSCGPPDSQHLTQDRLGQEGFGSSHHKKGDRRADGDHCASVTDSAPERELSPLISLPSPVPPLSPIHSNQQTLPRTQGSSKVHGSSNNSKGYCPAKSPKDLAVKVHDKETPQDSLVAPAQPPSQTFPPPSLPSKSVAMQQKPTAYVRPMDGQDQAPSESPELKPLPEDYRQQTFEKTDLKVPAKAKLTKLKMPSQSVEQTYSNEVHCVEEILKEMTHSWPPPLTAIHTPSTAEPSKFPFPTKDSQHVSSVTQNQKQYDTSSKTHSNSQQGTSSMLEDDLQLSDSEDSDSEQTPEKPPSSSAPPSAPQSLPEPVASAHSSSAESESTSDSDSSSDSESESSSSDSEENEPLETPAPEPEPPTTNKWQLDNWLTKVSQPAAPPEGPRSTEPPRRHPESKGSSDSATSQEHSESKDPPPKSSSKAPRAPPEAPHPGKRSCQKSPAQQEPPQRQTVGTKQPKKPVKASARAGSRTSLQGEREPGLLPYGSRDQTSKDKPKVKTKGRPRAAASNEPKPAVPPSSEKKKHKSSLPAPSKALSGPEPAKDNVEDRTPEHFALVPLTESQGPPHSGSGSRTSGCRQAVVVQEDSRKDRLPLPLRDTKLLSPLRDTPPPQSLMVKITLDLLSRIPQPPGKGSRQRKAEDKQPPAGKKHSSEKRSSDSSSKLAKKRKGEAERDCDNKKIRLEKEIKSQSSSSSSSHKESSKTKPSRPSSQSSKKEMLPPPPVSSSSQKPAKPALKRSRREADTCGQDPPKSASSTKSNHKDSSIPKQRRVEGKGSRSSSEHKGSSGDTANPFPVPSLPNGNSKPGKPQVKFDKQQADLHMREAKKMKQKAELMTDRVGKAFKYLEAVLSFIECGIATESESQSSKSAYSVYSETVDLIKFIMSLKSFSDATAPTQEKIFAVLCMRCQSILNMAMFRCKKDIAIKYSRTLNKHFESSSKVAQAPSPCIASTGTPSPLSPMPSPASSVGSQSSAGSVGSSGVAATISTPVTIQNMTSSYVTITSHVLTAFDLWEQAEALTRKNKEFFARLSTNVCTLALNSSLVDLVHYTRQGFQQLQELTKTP
The experiment in a line: co-IP; anti-Flag immunoprecipitation from nuclear extracts of HeLa cells co-transfected with differentially Flag- and HA-tagged AFF1 and AFF4; western blotting (Figure 1A,B). Particulars: remark: other sources report otherwise. In general terms: A western blot detects proteins with antibodies after separation by electrophoresis.

B1: FLAG-tagged AFF1, full length (aa 1-1210), P51825 1-1210 (protein)
chain: MAAQSSLYNDDRNLLRIREKERRNQEAHQEKEAFPEKIPLFGEPYKTAKGDELSSRIQNMLGNYEEVKEFLSTKSHTHRLDASENRLGKPKYPLIPDKGSSIPSSSFHTSVHHQSIHTPASGPLSVGNISHNPKMAQPRTEPMPSLHAKSCGPPDSQHLTQDRLGQEGFGSSHHKKGDRRADGDHCASVTDSAPERELSPLISLPSPVPPLSPIHSNQQTLPRTQGSSKVHGSSNNSKGYCPAKSPKDLAVKVHDKETPQDSLVAPAQPPSQTFPPPSLPSKSVAMQQKPTAYVRPMDGQDQAPSESPELKPLPEDYRQQTFEKTDLKVPAKAKLTKLKMPSQSVEQTYSNEVHCVEEILKEMTHSWPPPLTAIHTPSTAEPSKFPFPTKDSQHVSSVTQNQKQYDTSSKTHSNSQQGTSSMLEDDLQLSDSEDSDSEQTPEKPPSSSAPPSAPQSLPEPVASAHSSSAESESTSDSDSSSDSESESSSSDSEENEPLETPAPEPEPPTTNKWQLDNWLTKVSQPAAPPEGPRSTEPPRRHPESKGSSDSATSQEHSESKDPPPKSSSKAPRAPPEAPHPGKRSCQKSPAQQEPPQRQTVGTKQPKKPVKASARAGSRTSLQGEREPGLLPYGSRDQTSKDKPKVKTKGRPRAAASNEPKPAVPPSSEKKKHKSSLPAPSKALSGPEPAKDNVEDRTPEHFALVPLTESQGPPHSGSGSRTSGCRQAVVVQEDSRKDRLPLPLRDTKLLSPLRDTPPPQSLMVKITLDLLSRIPQPPGKGSRQRKAEDKQPPAGKKHSSEKRSSDSSSKLAKKRKGEAERDCDNKKIRLEKEIKSQSSSSSSSHKESSKTKPSRPSSQSSKKEMLPPPPVSSSSQKPAKPALKRSRREADTCGQDPPKSASSTKSNHKDSSIPKQRRVEGKGSRSSSEHKGSSGDTANPFPVPSLPNGNSKPGKPQVKFDKQQADLHMREAKKMKQKAELMTDRVGKAFKYLEAVLSFIECGIATESESQSSKSAYSVYSETVDLIKFIMSLKSFSDATAPTQEKIFAVLCMRCQSILNMAMFRCKKDIAIKYSRTLNKHFESSSKVAQAPSPCIASTGTPSPLSPMPSPASSVGSQSSAGSVGSSGVAATISTPVTIQNMTSSYVTITSHVLTAFDLWEQAEALTRKNKEFFARLSTNVCTLALNSSLVDLVHYTRQGFQQLQELTKTP
For B1, the binding entry is reported as “no binding”.
